# Experimental data: PubChem BioAssay AID1259308 (NCATS, 2017)
# Screen: 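Knock-downs that increase output of a recombinant reporter protein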 (primary screen)
# Cells: human HEK293 embryonic kidney cells stably expressing firefly luciferase (HEK-CMV-Luc2-Hygro)
# Knock-down reagent: single siRNA against human genes, 0.8 pmol siRNA per well
# Duration: 72 h
# Read-out: 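Reporter luminescence and viable-cell signal on separate replicate plates, given as percent of non-targeting control and median/MAD z-scores, plus per-cell luciferase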
# Reading the numbers: total luciferase, z-score: higher = more reporter protein produced
# Hit rule: 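Active when the median/MAD z-score for overall luciferase is greater than 3; a gene was taken forward for validation with new siRNAs if at least two of its three siRNAs passed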
# Meaning of the calls: active = raised luciferase; inactive = no rise
# Here is a random part of about 59,000 reagents tested. Of all reagents, about 1,510 (2.6%) were called active. 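Calls use total luciferase alone and ignore viability, so some active siRNAs may act by altering cell number.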 Reagents against one gene are numbered here. Not all columns of the deposit are shown.
gene symbol,siRNA no.,"total luciferase, z-score",activity call
VOPP1 (GeneID 81552),1,0.22,inactive
VOPP1 (GeneID 81552),2,0.0739,inactive
VOPP1 (GeneID 81552),3,0.748,inactive
CLVS1 (GeneID 157807),1,-0.266,inactive
CLVS1 (GeneID 157807),2,-0.278,inactive
CLVS1 (GeneID 157807),3,-0.541,inactive
SAV1 (GeneID 60485),1,-0.427,inactive
SAV1 (GeneID 60485),2,-0.469,inactive
SAV1 (GeneID 60485),3,1.24,inactive
USP46-DT (GeneID 643783),1,-2.9,inactive
USP46-DT (GeneID 643783),2,-0.182,inactive
USP46-DT (GeneID 643783),3,0.0283,inactive
FLI1 (GeneID 2313),1,0.351,inactive
FLI1 (GeneID 2313),2,-0.933,inactive
FLI1 (GeneID 2313),3,1.24,inactive
HEPN1 (GeneID 641654),1,0.537,inactive
HEPN1 (GeneID 641654),2,1.66,inactive
HEPN1 (GeneID 641654),3,0.295,inactive
MYO16 (GeneID 23026),1,-0.784,inactive
MYO16 (GeneID 23026),2,0.0567,inactive
MYO16 (GeneID 23026),3,0.567,inactive
IRX2-DT (GeneID 153571),1,-0.0413,inactive
IRX2-DT (GeneID 153571),2,-0.429,inactive
IRX2-DT (GeneID 153571),3,-1.73,inactive
GTF2E2 (GeneID 2961),1,-1.54,inactive
GTF2E2 (GeneID 2961),2,-1.18,inactive
GTF2E2 (GeneID 2961),3,-1.17,inactive
DCAF12L1 (GeneID 139170),1,0.495,inactive
DCAF12L1 (GeneID 139170),2,-1.07,inactive
DCAF12L1 (GeneID 139170),3,0.258,inactive
FLT3 (GeneID 2322),1,0.811,inactive
FLT3 (GeneID 2322),2,-0.215,inactive
FLT3 (GeneID 2322),3,0.601,inactive

Reformatted: entries from further up.
gene symbol | siRNA no. | total luciferase, z-score | activity call
GTF2E2 (GeneID 2961) | 3 | -1.17 | inactive
DCAF12L1 (GeneID 139170) | 1 | 0.495 | inactive

The results go on:
gene symbol,siRNA no.,"total luciferase, z-score",activity call
NDUFAF3 (GeneID 25915),1,0.689,inactive
NDUFAF3 (GeneID 25915),2,-0.873,inactive
NDUFAF3 (GeneID 25915),3,1.5,inactive
APOC2 (GeneID 344),1,-0.159,inactive
APOC2 (GeneID 344),2,0.0561,inactive
APOC2 (GeneID 344),3,-1.36,inactive
CHAC1 (GeneID 79094),1,-0.845,inactive
CHAC1 (GeneID 79094),2,-0.649,inactive
CHAC1 (GeneID 79094),3,-1.14,inactive
HSPB2 (GeneID 3316),1,-0.841,inactive
HSPB2 (GeneID 3316),2,-0.139,inactive
HSPB2 (GeneID 3316),3,-0.422,inactive
HNRNPD (GeneID 3184),1,-0.244,inactive
HNRNPD (GeneID 3184),2,0.0975,inactive
HNRNPD (GeneID 3184),3,1.44,inactive
PPP6R1 (GeneID 22870),1,0.901,inactive
PPP6R1 (GeneID 22870),2,0.664,inactive
PPP6R1 (GeneID 22870),3,0.00821,inactive
HAPLN2 (GeneID 60484),1,-0.544,inactive
HAPLN2 (GeneID 60484),2,-0.00276,inactive
HAPLN2 (GeneID 60484),3,-0.076,inactive
SUSD6 (GeneID 9766),1,1.16,inactive
SUSD6 (GeneID 9766),2,-0.16,inactive
SUSD6 (GeneID 9766),3,0.148,inactive
